Assay results reported in PubChem BioAssay AID493014 (National Center for Advancing Translational Sciences (NCATS), 2011).
Values joined by “and” are separate entries in the source; they are usually repeats but may differ in a detail not shown here. Equal entries are not always repeated. Some of the results follow. Further columns of the screen follow, without active or inactive calls. Compounds called inactive in the main read-out are mostly missing here. Potencies come from curve fits of mixed quality, noted in brackets.

Test: qHTS Assay to Find Inhibitors of Chronic Active B-Cell Receptor Signaling
Conditions: ABC-DLBCL IkBa-CBG/CBR reporter, luminescence ratio (green luciferase fused to IkBa over red control in TMD8 lymphoma cells), 4 h
Summary of the method: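 Doxycycline induced both beetle luciferases in TMD8 lymphoma cells; IKK-driven degradation limits the IkappaBalpha-fused green signal, while red luminescence normalises for cell number and nonspecific effects. Compounds tested up to 46 uM, 4 hrs.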

[1] = measured here: IkBa-CBG green luminescence
[2] = measured here: CBR red luminescence, cell number

Row | SMILES | AC50 [1] | AC50 [2]
1 | COc1cccc(NC(=O)CN(C)C(=O)CSCC(=O)Nc2ccc(C)cc2)c1 | 16.4 µM [falling, partial curve, poor fit] | –
2 | Cc1ccc(-c2csc3ncnc(Nc4ccc(C(=O)O)cc4)c23)cc1 | – | 2.51 µM [falling, full curve, poor fit]
3 | O=C(/C=C/c1cccs1)c1cc(Br)ccc1OC(=O)N1CCOCC1 | 16.4 µM [falling, partial curve, poor fit] | –
4 | COC(=O)C1=C(C)N(Cc2ccccc2)C(=S)N[C@H]1c1ccccc1 | – | 10 µM [falling, partial curve] and 12.6 µM [falling, single point]
5 | CCCCC(=O)Nc1ccc(NC(=O)c2ccc([N+](=O)[O-])cc2)cc1OC | – | 3.26 µM [rising, full curve, poor fit]
6 | COc1ccc(CC(NC(C)=O)C(=O)NC2CCN(C(=O)NCc3ccccc3)CC2)cc1 (stereo unspecified) | – | 0.251 µM [rising, full curve, poor fit]
7 | COC(=O)Cn1c(=NC(=O)c2cc(-c3cccs3)nc3ccccc23)sc2cc(S(N)(=O)=O)ccc21 | 6.51 µM [rising, partial curve, poor fit] | –
8 | CCOC(=O)c1[nH]c(C)c(C(=O)OCC(=O)N2CCc3ccccc32)c1C | – | 1.46 µM [falling, full curve, poor fit]
9 | CC1=NC(=O)C(N=Nc2cccc(C(=O)O)c2)N1c1ccccc1 (stereo unspecified) | 18.4 µM [rising, partial curve, poor fit] | 0.82 µM [falling, full curve]
10 | Cc1ccc(/C=c2\sc3n(c2=O)CN(c2ccc(Br)cc2)CN=3)o1 | – | 2.24 µM [falling, full curve]
11 | O=C(Nc1cccc2ccccc12)N1CCN(c2ccc(F)cc2)CC1 | – | 1.03 µM [falling, partial curve, poor fit]
12 | CN(C)c1cc(Nc2cccc(O)c2)c([N+](=O)[O-])c2nonc12 | – | 6.31 µM [rising, single point]
13 | COc1cc(-c2ccc3c(=O)c4ccccc4n(C)c3c2)cc(OC)c1OC | – | 3.16 µM [falling, partial curve, poor fit]
14 | COc1cccc(N2CC(NS(=O)(=O)c3ccc4ccccc4c3)CC2=O)c1 (stereo unspecified) | – | 29.1 µM [falling, single point]
15 | O=C(COC(=O)c1ccccc1C(=O)c1ccccc1)NCCc1ccc(Cl)cc1Cl | – | 29.1 µM [falling, single point]
16 | N/C(=N\OC(=O)c1cccc(Br)c1)c1ccc(Br)cc1 | – | 7.08 µM [rising, partial curve]
17 | O=C(Nc1ccccc1)c1ccc(-c2ccccc2Cl)o1 | – | 16.4 µM [falling, partial curve]
18 | O=C(c1cn(-c2ccc(Cl)c(Cl)c2)nn1)C1CC1 | – | 1.26 µM [rising, full curve, poor fit]
19 | CCCCOc1ccc(C(=O)NCC(=O)NC2CC2)cc1 | – | 0.731 µM [rising, full curve, poor fit]
20 | O=C(c1ccccc1)c1ccc2c(c1)OCCCO2 | – | 11.2 µM [falling, partial curve]
21 | CN(CC(=O)Nc1cccc(F)c1)C(=O)c1ccc(COc2ccccc2)cc1 | – | 3.26 µM [falling, partial curve]
22 | Fc1ccc(-c2nc(-c3cnccn3)no2)c(Cl)c1 | – | 12.6 µM [rising, partial curve]

Row | SMILES | AC50 [1] | AC50 [2]
23 | O=C(CSc1nc2ccc(Nc3nc(N4CCOCC4)nc(N4CCOCC4)n3)cc2s1)N1CCOCC1 | 2.91 µM [falling, partial curve, poor fit] | –
24 | C/C(=N\NC(=O)c1nn(C)cc1Cl)c1ccncc1 | – | 23.1 µM [falling, partial curve]
25 | O=C(Nc1ccc(Cl)cc1)c1cc(S(=O)(=O)NC2CCCCCC2)ccc1F | – | 10 µM [falling, partial curve]
26 | Cc1cc(C(=O)CSc2ccc(F)cc2)cc(C)c1OC(=S)N(C)C | – | 14.6 µM [falling, partial curve, poor fit]
27 | CN(C)c1nc(N)nc(CSc2nnnn2C)n1 | – | 23.1 µM [rising, single point]
28 | Cn1cccc1CNCc1ccccc1Cl | – | 28.2 µM [falling, partial curve, poor fit]
29 | Cn1nccc1C(=O)N1CCN(c2ccc(F)cc2)CC1 | – | 29.1 µM [rising, partial curve, poor fit]
30 | C/C(=N\NC(=O)c1sccc1C)c1cccnc1 | – | 3.16 µM [falling, partial curve, poor fit]
31 | NS(=O)(=O)c1ccc(NC(=O)COC(=O)CCCN2C(=O)c3cccc4cccc(c34)C2=O)cc1 | – | 6.51 µM [rising, single point]
32 | COc1ccc(S(=O)(=O)c2cnc3ccccc3n2)cc1 | – | 14.1 µM [falling, partial curve, poor fit]
33 | COc1ccc(NCCC(O)c2ccc(Cl)cc2)cc1 (stereo unspecified) | – | 8.91 µM [rising, partial curve, poor fit]
34 | Cc1cccc(NC(=S)NC(=O)/C=C/c2ccccc2)n1 | – | 35.5 µM [falling, single point]
35 | FC(F)(F)c1cc(-c2cccs2)nc(NCc2ccco2)n1 | – | 1.26 µM [falling, full curve, poor fit]
36 | OC1(c2ccc(Cl)c(Cl)c2)C[n+]2ccccc2N1Cc1ccccc1 (stereo unspecified) | – | 10 µM [falling, partial curve]
37 | CCc1noc(C)c1C(=O)Nc1nc2c(F)cc(F)cc2s1 | – | 16.4 µM [falling, single point]
38 | COc1cc(NC(=O)c2cc(C)no2)cc(OC)c1OC | – | 25.1 µM [falling, single point]
39 | COC(=O)c1cncc(O)c1 | – | 5.17 µM [falling, partial curve, poor fit]
40 | CC1(C)CC2CC(C)(CN2CC(O)c2ccccc2)C1 (stereo unspecified) | – | 10 µM [rising, partial curve, poor fit]
41 | COc1ccc(CCNC(=O)c2coc(=O)c(Br)c2)cc1 | – | 35.5 µM [falling, single point]
42 | CC(=O)c1cccc(NC(=O)NC2CCCCCCC2)c1 | – | 3.98 µM [rising, full curve, poor fit]
43 | CN(C)c1ccc(-c2nn3c(-c4ccccc4Cl)nnc3s2)cc1 | 2.51 µM [falling, partial curve, poor fit] | 2.82 µM [rising, partial curve, poor fit]
44 | O=C(C[N+]1(CC#Cc2ccccc2)CCCCC1)c1ccc(Cl)cc1 | – | 2.82 µM [falling, partial curve, poor fit]

Quoted from the listing.
AC50 [2] with COc1ccc(CCNC(=O)c2coc(=O)c(Br)c2)cc1 reads 35.5 µM [falling, single point]
AC50 [2] with OC1(c2ccc(Cl)c(Cl)c2)C[n+]2ccccc2N1Cc1ccccc1 (stereo unspecified) reads 10 µM [falling, partial curve]
AC50 [1] with O=C(CSc1nc2ccc(Nc3nc(N4CCOCC4)nc(N4CCOCC4)n3)cc2s1)N1CCOCC1 reads 2.91 µM [falling, partial curve, poor fit]

Following part

Row | SMILES | AC50 [1] | AC50 [2]
45 | Nc1ccc(CN2CCOCC2)cc1 | – | 35.5 µM [rising, single point]
46 | CC(C)=CCC/C(C)=C/CC(C)(C)CNCCN1CCNCC1 | – | 15.8 µM [falling, partial curve, poor fit]
47 | CN(C)/C=N/NC(=O)c1ccccc1Cl | – | 1.12 µM [falling, partial curve, poor fit]
48 | Cc1cc(N2CCN(c3ccccc3)CC2)n2ncnc2n1 | – | 2.82 µM [falling, partial curve, poor fit]
49 | COCC(=O)N1CCC(Oc2ccc(C(=O)NCc3csc(C(C)C)n3)cc2)CC1 | – | 20 µM [falling, partial curve, poor fit]
50 | CC(C)CCNC(=O)c1ccc2c(c1)N(C)C(=O)c1ccccc1S2 | – | 31.6 µM [rising, single point]
51 | Cc1cc(C)c2c(=O)[nH]c(SCc3ccccc3)nc2n1 | – | 4.47 µM [falling, full curve]
52 | CCC(CC)C1C(C#N)=C(N)Oc2n[nH]c(-c3ccccc3)c21 (stereo unspecified) | – | 7.31 µM [falling, partial curve]
53 | CC(OC(=O)c1c[nH]c2ccccc12)C(=O)N1CCCC1 (stereo unspecified) | – | 9.2 µM [rising, single point]
54 | CC1=C(C(N)=O)C(c2ccc(Cl)cc2Cl)n2ncnc2N1 (stereo unspecified) | – | 2.59 µM [rising, partial curve, poor fit]
55 | CCOC(=O)c1oc2ccc(S(=O)(=O)n3nc(-c4ccccc4)cc3N)cc2c1C | – | 29.1 µM [falling, single point]
56 | Cc1ccc(C(=O)Nc2cccc(C(F)(F)F)c2)cc1NC(=O)c1cnnc2ccccc12 | – | 2.24 µM [falling, full curve, poor fit]
57 | O=c1cc(N2CCc3ccccc32)[nH]c(=O)n1-c1ccccc1Cl | – | 25.1 µM [falling, single point]
58 | COc1ccccc1C(=O)/C=C/c1ccc(N2CCCCC2)c([N+](=O)[O-])c1 | – | 20.6 µM [falling, single point]
59 | Cc1cnnc2ccc3c(no[n+]3[O-])c12 | – | 3.98 µM [rising, full curve]
60 | Cc1ccc(-c2nnn(CC(=O)N3CCN(c4ccccc4)CC3)n2)o1 | – | 29.1 µM [rising, single point]
61 | CCOC(=O)N1CCC(Nc2ncnc3c2cnn3-c2ccc(Cl)cc2)CC1 | – | 14.6 µM [rising, partial curve]
62 | O=C(CNC(=O)C1(c2ccccc2)CC1)Nc1ccc(F)c(F)c1 | – | 6.51 µM [rising, partial curve, poor fit]
63 | CC1=NN(c2ccccc2)C(=O)/C1=C/N(C)C | – | 5.62 µM [rising, single point]
64 | COC(=O)c1cccc(NC(=O)c2ccco2)c1 | – | 25.9 µM [falling, partial curve, poor fit]
